Reference: PubChem BioAssay AID1259254 (NCATS, 2017)
Purpose: 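Gene knock-downs that lead to re-replication, shown by excess G2 DNA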 (primary screen). Cell system: human HCT116 colorectal cancer cells. Knock-down reagent: single siRNA against human genes. Timing: 3 days. Detection: 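Imaged Hoechst DNA stain sorts each cell into a cycle phase by DNA amount; per plate, G2 fraction set to 0% for non-targeting and 100% for GMNN siRNA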. Reading the numbers: G2 robust z-score and G2 cells, % of GMNN control: higher = more G2 cells, more excess DNA replication; raw share of cells in G2: higher = larger share of cells with G2 DNA content. Rule for the call: 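Active siRNAs have a G2 robust z of 5 or more median absolute deviations over the median, which in these data means about 38% or higher of GMNN control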.
The deposit covers about 59,000 reagents; shown is an unselected part. About 1,550 of them (2.6%) were called active. 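G2 share is only a proxy for re-replication; each gene was hit by three separate siRNAs, and active genes were retested.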 Raw values are not corrected between plates. Reagents against one gene are numbered here. Not given: the amount of reagent.

gene knocked down	reagent no.	G2 robust z-score	G2 cells, % of GMNN control	raw share of cells in G2 (%)	Outcome
GABRQ	1	-0.259	1.15	4.82	inactive
GABRQ	2	0.141	3.96	6.73	inactive
GABRQ	3	-0.734	-2.19	4.04	inactive
BLOC1S2	1	-0.0749	2.44	4.53	inactive
BLOC1S2	2	-0.518	-0.678	2.78	inactive
BLOC1S2	3	-0.713	-2.05	2.64	inactive
BBS9	1	0.125	3.85	5.32	inactive
BBS9	2	-0.725	-2.14	3.74	inactive
BBS9	3	0.76	8.31	5.87	inactive
LOC729696 (retired record)	1	-0.592	-1.2	3.62	inactive
LOC729696 (retired record)	2	1.46	13.3	7.7	inactive
LOC729696 (retired record)	3	-0.998	-4.06	1.69	inactive
DUSP3	1	2.08	17.6	10.5	inactive
DUSP3	2	-0.29	0.924	4.58	inactive
DUSP3	3	-0.915	-3.47	2.45	inactive
STK17A	1	0.14	3.96	6.82	inactive
STK17A	2	-1.24	-5.76	3.1	inactive
STK17A	3	-0.979	-3.92	2.43	inactive
ZNF664	1	2.67	21.8	10.7	inactive
ZNF664	2	-0.152	1.9	3.75	inactive
ZNF664	3	0.14	3.95	4.91	inactive
UBL5	1	2.02	17.2	10.4	inactive
UBL5	2	-1.22	-5.64	2.18	inactive
UBL5	3	-0.545	-0.865	5.29	inactive
PEPD	1	-0.435	-0.0964	3.47	inactive
PEPD	2	1.14	11	7.61	inactive
PEPD	3	0.685	7.79	7.33	inactive

Continued; the last 2 above are carried over.
gene knocked down	reagent no.	G2 robust z-score	G2 cells, % of GMNN control	raw share of cells in G2 (%)	Outcome
PEPD	2	1.14	11	7.61	inactive
PEPD	3	0.685	7.79	7.33	inactive
CNIH1	1	2.07	17.5	13.2	inactive
CNIH1	2	3.2	25.5	14.6	inactive
CNIH1	3	1.85	16	9.23	inactive
UQCRQ	1	3.13	25	17.5	inactive
UQCRQ	2	-0.836	-2.92	3.04	inactive
UQCRQ	3	-0.4	0.156	4.24	inactive
SOX21	1	0.482	6.36	6.28	inactive
SOX21	2	0.129	3.87	5.19	inactive
SOX21	3	-0.689	-1.88	5.61	inactive
CSN1S1	1	0.525	6.66	6.13	inactive
CSN1S1	2	-0.263	1.12	5.83	inactive
CSN1S1	3	1.43	13	8.86	inactive
TLL1	1	-1.06	-4.51	3.99	inactive
TLL1	2	-0.405	0.117	4.95	inactive
TLL1	3	0.915	9.41	7.42	inactive
ANAPC4	1	1.17	11.2	8.14	inactive
ANAPC4	2	1.31	12.2	9.17	inactive
ANAPC4	3	-0.0851	2.37	4	inactive
CEMP1	1	0.818	8.72	7.58	inactive
CEMP1	2	-0.792	-2.61	2.44	inactive
CEMP1	3	0.963	9.74	6.97	inactive
